These are yes or no findings as the source states them, for the method shown. Some binding calls cover weakened binding; strength is not graded here.
How the values were obtained:
[1] = biological target: Murine ZEB (cDNA 129-3240 nt) fused in frame with the GAL4 DNA-binding domain in pAS2-1 (murine); assay: yeast two-hybrid screen
[2] = biological target: Murine ZEB (cDNA 129-3240 nt) fused in frame with the GAL4 DNA-binding domain in pAS2-1 (murine); assay: yeast two-hybrid, growth on -LEU/-TRP/-HIS plates
[3] = biological target: Murine ZEB (cDNA 129-3240 nt) fused in frame with the GAL4 DNA-binding domain in pAS2-1 (murine); assay: yeast two-hybrid screen in Y-190, verified on beta-galactosidase plates

The chains behind the UniProt entries cited, without tags or fusion partners. Residues count along the entry.
UniProt P70399, residues 1492-1969: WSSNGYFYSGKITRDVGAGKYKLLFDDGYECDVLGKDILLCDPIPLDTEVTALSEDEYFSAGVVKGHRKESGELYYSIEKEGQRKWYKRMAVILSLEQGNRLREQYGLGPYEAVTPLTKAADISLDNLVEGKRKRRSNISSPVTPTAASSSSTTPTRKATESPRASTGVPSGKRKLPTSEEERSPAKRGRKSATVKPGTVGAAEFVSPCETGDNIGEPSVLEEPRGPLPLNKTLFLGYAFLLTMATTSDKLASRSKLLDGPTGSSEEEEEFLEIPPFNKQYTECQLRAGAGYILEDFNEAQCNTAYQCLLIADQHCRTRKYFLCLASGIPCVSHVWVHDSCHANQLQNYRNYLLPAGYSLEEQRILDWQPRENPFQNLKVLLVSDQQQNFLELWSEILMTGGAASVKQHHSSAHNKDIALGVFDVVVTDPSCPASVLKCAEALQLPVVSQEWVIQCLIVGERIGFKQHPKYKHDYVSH

Measured: binding

p53BP1 clone #43 (carboxyl-terminal fragment) fused to the GAL4 activation domain in pGAD10 (from UniProt P70399 1492-1969)
binds: all assays above

From patent US20030119772A1
